Source: PubChem BioAssay AID1471 (National Center for Advancing Translational Sciences (NCATS), 2008)
Several values for one entry are separate records, joined by “and”; a condition that tells them apart may be missing. Equal values may be shown once. Hit rate of the full screen: of about 230,000 compounds, about 310 (0.13%) were called active. Inconclusive results, whose numbers are uncertain, are shown with a selection of clear calls. Calls follow the shape of the dose curve; as a rule, active = well fitted activation curve with a large enough effect; inconclusive = small, poorly fitted or top-dose-only effect; inactive = no such curve, though single readings can be large or run the other way. A potency beside an inconclusive call is a rough fit, not a confirmed value.

Experiment: qHTS Multiplex Assay to Identify Dual Action Probes in a Cell Model of Huntington: Cytoprotection (ATP); also: nearly all actives have a fitted effect of over 45% in size;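 as to cytoprotection (ATP increase): toxic huntingtin expression switched on by the ecdysone agonist tebufenozide; % of control where 0% means no effect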
Conditions: PC12 HTT-Q103 induced, ATP luminescence, 40 h; cytoprotection (ATP increase): at 56.4 µM (top of the series) unless noted
Procedure, shortened: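 Quantitative HTS on tebufenozide-induced (100 nM) PC12 cells expressing HTTQ103 exon 1–GFP; compounds tested as a concentration series; survival measured via cellular ATP.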
Potency is read from the fitted curve at half-maximal effect.

| Structure (SMILES) | Potency | cytoprotection (ATP increase) |
| --- | --- | --- |
| CC(C)=CCC/C(C)=C/CO/N=C1/C[C@@H](O)[C@@H](O)[C@@H]2[C@@H]3C(=O)N(Cc4ccccc4)C(=O)[C@H]3CC[C@@H]12 | inconclusive: 0.0009 µM [activator, full curve, poor fit] |  |
| Cc1ccc(NC(=O)CCN2CCN(C/C=C/c3ccccc3)CC2)cc1 |  | inactive: 9.78% |
| O=C(CCNC(=O)c1ccccc1)NCC1CCCCC1 |  | inactive: -15.7% |
| COc1ccc(/C=N/NC(=O)c2cccc(Br)c2)cc1COc1ccccn1 |  | inactive: 6.74% [at 10 µM] |
| CCc1noc(C)c1C(=O)Nc1sc(C(=O)N(C)C)c(C)c1C(=O)OC |  | inactive: -18.1% |
| CN1C(=O)C(O)(c2nnc(-c3ccccc3)o2)c2ccccc21 (stereo not given) | inconclusive: 0.224 µM [activator, full curve, poor fit] |  |
| C=CCOC(=O)N[C@@H](CCc1ccccc1)C(C(C)=O)C(C)=O | inconclusive: 35.5 µM [activator, single point] |  |
| CC(C)(C)C1CCc2[nH]nc(C(=O)O)c2C1 (stereo not given) | active: 3.55 µM |  |
| FC(F)(F)c1cccc(-n2cccc2/C=N/n2cnnc2)c1 | inconclusive: 3.16 µM [activator, single point] |  |
| Cn1c(CCc2ccccc2)nnc1SCC(=O)N1CCOCC1 | inconclusive: 1.26 µM [activator, single point] |  |
| C[C@@H]1C[C@@H]2[C@H]3CCC4=CC(=O)C=C[C@]4(C)[C@]3(Cl)[C@@H](O)C[C@@]2(C)[C@@]1(O)C(=O)CO | inconclusive: 1.26 µM [activator, single point] |  |
| COc1ccc(NC(=O)C2CCCN2C(=O)Oc2ccccc2)cc1 (stereo not given) | inconclusive: 5.62 µM [activator, single point] |  |
| NC(=S)N/N=C/c1ccc(-c2ccc(Cl)c(Cl)c2)o1 | inconclusive: 5.62 µM [activator, single point] |  |
| COC(=O)CCC(=O)OC1(C)C(=O)C2=CN(CC3CC3)C(c3ccc(OC)cc3)=CC2=C(Br)C1=O (stereo not given) |  | inactive: -25% [at 10 µM] and inactive: -38.9% [at 10 µM] |
| O=C(NCc1ccco1)c1nc2c(nnn2Cc2cccc(Cl)c2)c(=O)[nH]1 | active: 4.47 µM |  |
| Fc1ccc(-c2nc3n(c2-c2ccncc2)CCS3)cc1 | inconclusive: 20 µM [activator, partial curve] |  |
| COc1ccc(/C=C/C(=O)C2(O)CCCCC2)cc1OC | inconclusive: 10 µM [activator, single point] |  |
| Cc1nc2ccc(NC(=S)NC3CC3)cc2nc1C | inconclusive: 5.62 µM [activator, single point] |  |
| Cc1ccccc1-c1nc(NCc2cccs2)c2ccccc2n1 | inconclusive: 3.16 µM [activator, partial curve, poor fit] |  |
| COc1ccc(-c2cc(-n3c(C(F)(F)F)nc4ccccc43)n(CCC#N)n2)cc1 |  | inactive: -15.7% |
| CCS(=O)(=O)N1CCN(c2ccc(C(=O)NC3C4CC5CC(C4)CC3C5)cc2[N+](=O)[O-])CC1 (stereo not given) |  | inactive: -6.33% [at 10 µM] |
| C/C(CC(C)C)=N\NS(=O)(=O)c1ccc(C)c([N+](=O)[O-])c1 |  | inactive: -6.08% [at 10 µM] |
| Cc1c(Cl)cccc1NC(=S)N(Cc1cccs1)C1CCCC1 | inconclusive: 0.708 µM [activator, single point] |  |
| Cc1ncc(CSSCc2cnc(C)c(O)c2CO)c(CO)c1O | inconclusive: 1.41 µM [activator, partial curve, poor fit] |  |

| Structure (SMILES) | Potency | cytoprotection (ATP increase) |
| --- | --- | --- |
| O=C(NCCCl)Nc1cc([N+](=O)[O-])ccc1Cl | inconclusive: 1.26 µM [activator, single point] |  |
| CC(=O)C1=C(c2cccc([N+](=O)[O-])c2)N(C(C)=O)n2c(C)nnc2S1 | inconclusive: 14.1 µM [activator, partial curve, poor fit] |  |
| CCOC(=O)c1c(CS(=O)(=O)c2ccccc2)n(C)c2cc(Br)c(O)c(CN(C)C)c12 | inconclusive: 5.62 µM [activator, single point] |  |
| CC(=O)Oc1cccc2c1C(=O)c1c(OC(C)=O)cc(C(=O)O)cc1C2=O | inconclusive: 1.26 µM [activator, single point] |  |
| CNC(=O)c1c(C)noc1C | inconclusive: 0.447 µM [activator, partial curve] |  |
| Cc1cccc(C)c1OCc1n[nH]c(=S)n1N |  | inactive: 7.48% [at 10 µM] |
| COc1ccc(-n2cnnc2SCC(=O)N2CCN(c3ccccc3)CC2)cc1 |  | inactive: -15.2% |
| O=C(O)c1cc(O)c2c(c1)[O][Bi][O]2 | inconclusive: 0.355 µM [activator, full curve, poor fit] |  |
| CCOC(=O)C(C)N1C(=O)S/C(=C/c2cc(C)n(-c3ccncc3)c2C)C1=O (stereo not given) | inconclusive: 35.5 µM [activator, partial curve, poor fit] |  |
| COc1cc(NC(=S)N2CCN(c3ccccn3)CC2)c(OC)cc1Cl |  | inactive: 3.68% [at 10 µM] |
| COc1ccccc1NC(=O)CC1C(=O)Nc2c1c(=O)n(C)c(=O)n2C (stereo not given) |  | inactive: -23.9% |
| O=C(Cc1ccc(Cl)cc1)NCc1ccccc1Cl |  | inactive: -40.3% |
| Cc1c(F)cccc1NS(=O)(=O)c1ccc2c(c1)NC(=O)CO2 |  | inactive: -20% |
| CCCCCCn1c(CN2CCN(C(=O)c3ccco3)CC2)nc2c1c(=O)n(C)c(=O)n2C |  | inactive: 4.98% |
| CC1=NN(C(=O)c2cccnc2)C(O)(C(F)(F)F)C1 (stereo not given) | inconclusive: 0.447 µM [activator, partial curve] |  |
| COc1ccc(/C=N/NC(=S)Nc2ccccc2)cc1COc1ccc(Br)cc1 | inconclusive: 3.16 µM [activator, single point] |  |
| O=C(c1ccc(N2CCCC2)c([N+](=O)[O-])c1)N1CCN(c2ccccn2)CC1 | inconclusive: 35.5 µM [activator, single point] |  |
| CN1CCN(c2ncc3nc(-c4ccc(Cl)cc4)c(=O)n(Cc4ccc(F)cc4)c3n2)CC1 |  | inactive: -0.667% |
| C[C@H](N)CCP(=O)(O)O |  | inactive: -24.6% |
| Cc1ccc(/C(O)=C2/C(=O)C(=O)N(CCN3CCOCC3)C2c2ccccn2)cc1 (stereo not given) |  | inactive: -17.2% |
| Fc1ccc2nc(-c3ccccc3)nc(SCc3nnc(-c4ccccc4)o3)c2c1 | inconclusive: 1.26 µM [activator, single point] |  |
| CSC(=NC#N)N1CCN(c2ccccn2)CC1 | inconclusive: 10 µM [activator, single point] |  |
| COC(=O)c1c(-c2cccc(OC)c2)csc1N |  | inactive: 3.02% [at 10 µM] |
| COCC(=O)N1CCC2(CCN(Cc3ccncc3)CC2)CC1 | inconclusive: 5.62 µM [activator, partial curve, poor fit] |  |

| Structure (SMILES) | Potency | cytoprotection (ATP increase) |
| --- | --- | --- |
| Nc1scc2c(C(=O)N/N=C/c3ccc(Cl)cc3)nn(-c3ccccc3)c(=O)c12 | inconclusive: 3.55 µM [activator, single point] |  |
| Cc1ccc(S(=O)(=O)/N=C2/NC(=O)/C(=C/c3ccncc3)S2)cc1 | inconclusive: 5.62 µM [activator, single point] |  |
| S=c1[nH]nc(COc2ccccc2)n1/N=C/C(Cl)=C/c1ccccc1 | inconclusive: 35.5 µM [activator, single point] |  |
| COC(=O)N1CC=CC1(C)C(=O)NCC1CC1 (stereo not given) | active: 12.6 µM |  |
| O=C(CN1CCN(Cc2ccc3c(c2)OCO3)CC1)Nc1ccc(N2CCOCC2)cc1 | inconclusive: 3.98 µM [activator, single point] |  |
| CC(=O)c1cccc(NC(=O)C(OC(=O)c2cccc(S(=O)(=O)N(C)c3ccccc3)c2)c2ccccc2)c1 (stereo not given) | inconclusive: 0.708 µM [activator, single point] |  |
| O=C(c1cccnc1)N1N=C(C2CC2)CC1(O)C(F)(F)F (stereo not given) | inconclusive: 0.794 µM [activator, single point] |  |
| Cc1cccc(Nc2n[nH]c(=S)s2)c1C |  | inactive: -19.9% |
| c1ccc(Cn2ccnc2SCc2nnc(-c3ccccc3)o2)cc1 |  | inactive: -1.6% |
| CCCCc1cc(=O)oc2cc(O)cc(O)c12 | inconclusive: 15.8 µM [activator, single point] |  |
| S=c1[nH]nc(COc2ccc(Cl)cc2)n1Cc1ccco1 | inconclusive: 2 µM [activator, partial curve] |  |
| N#CC(C#N)=C1C=CC=CN1/C(=C\c1ccco1)C(=O)c1ccc(Cl)cc1 | inconclusive: 5.62 µM [activator, single point] |  |
| COC(=O)c1ccc(NC(=O)CN2CCN(c3ccc(Cl)cc3)CC2)cc1 |  | inactive: 11.5% [at 10 µM] |
| COc1ccc(C(C)=O)cc1COC(=O)c1ccc(S(=O)(=O)N(C)C)cc1 | inconclusive: 2.51 µM [activator, single point] |  |
| CC(C)COC(=O)c1cccc2c1-c1ccccc1/C2=N\O |  | inactive: -16.6% [at 10 µM] |
| CCOc1ccc2nc(N3CCC(C(=O)N4CCN(C(=O)c5ccco5)CC4)CC3)sc2c1 |  | inactive: -10.8% [at 10 µM] |
| COc1ccc2nc(C)cc(Sc3nc4ccccc4s3)c2c1 | inconclusive: 5.62 µM [activator, single point] |  |
| CCOC(=O)N1CCN(S(=O)(=O)c2ccc(C(=O)Nc3nnc(C)o3)cc2)CC1 | active: 3.55 µM |  |
| Cn1c(Cn2cnc(Cl)c2Cl)nc2ccccc21 | inconclusive: 25.1 µM [activator, single point] |  |
| CCCCCn1c(SCCOCC)nc2c1c(=O)[nH]c(=O)n2C |  | inactive: -32.4% |
| O=C(c1ccncc1)N1CCC2(CCCN(c3ccccn3)C2)CC1 | inconclusive: 3.55 µM [activator, single point] |  |
| CC(=O)N[C@@H](CCC(=O)O)C(=O)O | active: 2 µM |  |

Laid out differently: entries from further up.
Structure (SMILES) | Potency | cytoprotection (ATP increase)
S=c1[nH]nc(COc2ccc(Cl)cc2)n1Cc1ccco1 | inconclusive: 2 µM [activator, partial curve] | 
CC(C)COC(=O)c1cccc2c1-c1ccccc1/C2=N\O |  | inactive: -16.6% [at 10 µM]
CCOC(=O)N1CCN(S(=O)(=O)c2ccc(C(=O)Nc3nnc(C)o3)cc2)CC1 | active: 3.55 µM | 
Cn1c(Cn2cnc(Cl)c2Cl)nc2ccccc21 | inconclusive: 25.1 µM [activator, single point] | 
